According to patent publication US20140364391A1, “Immobilization Of An Active Agent On A Substrate Using Compounds Including Trihydroxyphenyl Groups” (BAXTER INTERNATIONAL INC., priority 2013, published 2014):

Experiment: Silver nitrate test for immobilization of trihydroxyphenyl compound on oxidized polymeric substrates (Examples 16-20)
Settings: H2O2/HCl-oxidized PI, PC and PS substrates; 50 mM silver nitrate, about 60 hours

Colour change of treated substrates in silver nitrate (deposition of silver metal), darkened in color:
Oc1ccc(O)c(O)c1 [1,2,4-benzenetriol]
O=C(O)c1cc(O)c(O)c(O)c1 [gallic acid]
Oc1cc(O)cc(O)c1 [phloroglucinol]
Oc1cccc(O)c1O [pyrogallol]
trihydroxybenzaldehyde
